Measurements: PubChem BioAssay AID1347076 (National Center for Advancing Translational Sciences (NCATS), 2019)
Hit rate of the full screen: of about 400,000 compounds, about 13,000 (3.2%) were called active. The inconclusive results got no clear call from the source; some entries with a clear call stand among them for comparison. Calls come from the whole dose curve; as a rule, active = well fitted cell-killing curve with a large enough effect; inconclusive = small, poorly fitted or top-dose-only effect, or effect the other way; inactive = flat fitted curve, though single readings scatter. Potencies of inconclusive entries are doubtful fits and often do not repeat.

Test: qHTS assay for MDR1-selective chemotherapeutics: Primary screen using the drug-selected MDR subline cells KB-V1; note: nearly all actives have a fitted effect of over 60% in size
Conditions: KB-V1 MDR cells viability, CellTiter-Glo, 72 h; activity change, negative = cytotoxicity: at 46.1 µM (top of the series)
Method in brief: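 KB-V1, DMEM (no phenol red) + 10% FBS; cpd pin-transferred, titration series; 72 h, 37 degrees C; CellTiter-Glo, luminescence. Data normalized, curve-fit.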
% is set by controls: 0 for no effect and ±100 for the full control effect; potency is the fitted concentration of half-maximal effect.

SMILES	Potency	activity change, negative = cytotoxicity
COCCCNC(=S)N/N=C/c1ccccc1O	inconclusive: 13 µM [cytotoxic, single point]	
COc1ccc(OC)c(C(c2nnnn2C(C)(C)C)N2CCc3ccccc3C2)c1 (configuration not stated)	inconclusive: 23.1 µM [cytotoxic, partial curve, poor fit]	
Cc1ccn2c(=O)c(C(=O)NCCc3ccccc3)c(O)nc2c1	inconclusive: 7.31 µM [cytotoxic, partial curve, poor fit]	
CCCn1nc(C(=O)N2CC(=O)Nc3ccccc32)c2ccccc2c1=O	active: 20.6 µM	
CCCCCc1cc[n+](CC(=O)c2ccccc2)cc1	inactive	
CCOC(=O)N1CCc2[nH]c3ccc(C)cc3c2C1	inconclusive: 23.1 µM [cytotoxic, single point]	
O=C(CCCOc1ccccc1)N1CCN(C(=O)c2ccco2)CC1	inconclusive: 20.6 µM [cytotoxic, single point]	
COc1ccc(NC(=S)NCCc2c[nH]c3ccc(OC)cc23)c(OC)c1	inconclusive: 18.4 µM [cytotoxic, partial curve, poor fit]	
Cc1[nH]c2ccccc2c1C(=O)COc1ccccc1F	inactive	
O=C(NCCCN1CCOCC1)c1cc2c(s1)CCC2	inactive	
CCCC#Cc1ccc2c(c1)O[C@@H](CN(C)Cc1ccc3c(c1)OCO3)[C@H](C)CN([C@@H](C)CO)S2(=O)=O		inconclusive: -33.5%
CC(=O)Nc1ccc(CNc2nc(NC(C)C)nc3cc(-c4ccccc4)sc23)cc1	active: 20.6 µM	
Cc1cccc(OCC(=O)NCc2nc(-c3ccccc3)no2)c1	inactive	
O=C(NCC1CCCN(C(=O)CN2CCCCC2)C1)c1ccccc1Cl (configuration not stated)	inactive	
CCOC(=O)c1nn(-c2ccc(C)c(C)c2)c(=O)c2c(N)scc12	inactive	
CCC(CC)NC(=O)c1oc2ccccc2c1COc1ccccc1	inconclusive: 16.4 µM [cytotoxic, partial curve]	
CC(C)c1ccc2[nH]c3c(c2c1)CCC/C3=N\NC(=O)c1ccncc1	inconclusive: 29.1 µM [cytotoxic, single point]	
CCOC(=O)c1cccc(NC(=O)C2(S(=O)(=O)c3ccc(Cl)cc3)CC2)c1	inactive	
O=C(CSc1cccc[n+]1[O-])c1cc(Cl)ccc1Cl	inactive	
COc1cc2c(=O)c(S(=O)(=O)c3ccc(F)cc3)cn(Cc3ccc(Cl)cc3)c2cc1OC	inconclusive: 1.46 µM [rising, full curve, poor fit]	
COc1ccc(NC(=O)c2oc3ccccc3c2NC(=O)c2ccc3c(c2)OCO3)cc1	inconclusive: 1.84 µM [cytotoxic, partial curve, poor fit]	
C/C(CC(=O)Nc1ccc(Cl)c(C(F)(F)F)c1)=N\NC(N)=S	inconclusive: 4.61 µM [rising, partial curve, poor fit]	
COc1ccc(Cn2c(=O)[nH]c3cc(C(=O)N4CCN(c5cccc(Cl)c5)CC4)ccc3c2=O)cc1	inconclusive: 29.1 µM [rising, single point]	
COc1ccc(-c2ccc(SCC(=O)NC3CCCC3)nn2)cc1	inactive	

SMILES	Potency	activity change, negative = cytotoxicity
CC(/C=N/NC(=O)c1sc(N)nc1C)=C\c1ccccc1	inconclusive: 20.6 µM [rising, single point]	
COc1ccccc1-c1sc2ccccc2c1-c1ccc2c(c1)OCCO2	inconclusive: 23.1 µM [cytotoxic, single point]	
CCCn1nnc(NC(=O)C(C)Oc2ccc(Cl)cc2Cl)n1 (configuration not stated)	inconclusive: 18.4 µM [cytotoxic, single point]	
COc1ccc(CN2C(=O)[C@@H]3Cc4c([nH]c5ccccc45)C(C)(C)N3C2=O)cc1	inconclusive: 29.1 µM [cytotoxic, single point]	
COc1ccc(C(=O)NC2CCN(Cc3ccccc3)C2)cc1S(=O)(=O)N1CCOCC1 (configuration not stated)	inconclusive: 32.6 µM [cytotoxic, single point]	
CCOC(=O)N1CCN(C(=O)/C(=C/c2ccccc2OC)NC(=O)c2ccccc2)CC1	active: 7.31 µM	
Oc1ccccc1C=NN=Cc1ccccc1Cl	inconclusive: 29.1 µM [cytotoxic, single point]	
Cc1ccc(C)c(N2C(=O)CC(Cc3ccc(Br)cc3)C2=O)c1 (configuration not stated)	inconclusive: 13 µM [cytotoxic, partial curve]	
CN(C(=O)COC(=O)C1CCN(S(=O)(=O)c2ccc3c(c2)OCCO3)CC1)C1CCCCC1	inactive	
Nc1nonc1C(=O)NC(c1ccccc1)c1ccccc1	inconclusive: 20.6 µM [cytotoxic, partial curve]	
CCOc1cc(-c2nc3cc(C)ccn3c2NCC2CCCO2)ccc1O (configuration not stated)	active: 2.59 µM	
COCCCNC(=O)CN(CCc1ccccc1)S(=O)(=O)c1ccc(OC)cc1	inconclusive: 9.2 µM [cytotoxic, partial curve, poor fit]	
Cc1ccccc1-c1cc(C(=O)Nc2sc(C)c(C)c2C(N)=O)c2ccccc2n1	active: 16.4 µM	
Cc1ccc(-c2nnc(-c3ccncc3)n2-c2ccc(C)cc2)cc1	inconclusive: 11.6 µM [cytotoxic, partial curve]	
CN(c1ccccc1)S(=O)(=O)c1ccc(Cl)c(C(=O)Nc2ccccc2N2CCOCC2)c1	inconclusive: 0.0058 µM [cytotoxic, full curve, poor fit]	
COc1ccccc1C(=O)COC(=O)c1cccc(S(=O)(=O)N2CCCC2)c1	inconclusive: 23.1 µM [cytotoxic, single point]	
Cc1cc(C)c(NC(=O)CSc2nc3ccccc3nc2N2CCCCC2)c(C)c1	inconclusive: 29.1 µM [cytotoxic, single point]	
CCOC(=O)c1c(NC(=O)c2cccnc2)sc(C)c1C	inactive	
O=C(c1ccc(COCC(F)(F)F)o1)N1CCCC1	inconclusive: 29.1 µM [rising, partial curve, poor fit]	
COC(=O)CN(C(=O)CSc1nnc(-c2cccc(OC)c2)o1)c1ccc(OC)cc1	inconclusive: 4.61 µM [cytotoxic, partial curve]	
CC(Sc1n[nH]c(-c2cccs2)n1)C(=O)Nc1ccc(C(N)=O)cc1 (configuration not stated)	inconclusive: 23.1 µM [rising, partial curve, poor fit]	
COC(=O)c1cc(CSc2nc3ccccc3[nH]2)oc1C	active: 2.91 µM	
O=C1c2cccc(OCC(=O)N3CCCc4ccccc43)c2CCN1Cc1ccc(F)cc1	active: 9.2 µM	
CC1CC(C)CN(CC(O)COCc2ccccc2)C1 (configuration not stated)		inconclusive: 35.3%

SMILES	Potency	activity change, negative = cytotoxicity
O=C(Nc1ccc2c(c1)OCO2)O[C@@H]1C[C@H]2CCC(=O)N3CC[C@@H](C1)[C@@H]23	inconclusive: 18.4 µM [cytotoxic, single point]	
COc1ccc(NC(=O)c2cc(CC(C)C)nc3ccccc23)cc1	inactive	
Cc1cc(C(F)F)n2nc(C(=O)Nc3ccc(S(=O)(=O)N4CCCC4)cc3)nc2n1	inactive	
CCOC(=O)/C=C/C(=O)OCC(=O)Nc1ccc(Cl)cn1	inactive	
CCN(CC)C(=O)CN(c1cc(Cl)ccc1OC)S(=O)(=O)c1ccc(C)c([N+](=O)[O-])c1	inconclusive: 7.31 µM [cytotoxic, partial curve, poor fit]	
CN1CCC(N2CCN(C3CN(C4CCCCC4)S(=O)(=O)C3)CC2)CC1 (configuration not stated)	inconclusive: 3.66 µM [rising, partial curve, poor fit]	
CCCn1c(SCC(=O)Nc2ccccc2C(=O)OC)nc2c1c(=O)n(C)c(=O)n2C	active: 5.01 µM	
CC(C)COc1cccc(C(=O)Nc2ccc(-c3nc4ncccc4o3)cc2)c1	inconclusive: 23.1 µM [rising, partial curve, poor fit]	
CCc1ccc(N2C(=O)C3CCCN3C2=S)cc1 (configuration not stated)	inactive	
Nc1ccc(N(c2ccccc2)c2ccc(N)cc2)cc1	inconclusive: 23.1 µM [cytotoxic, single point]	
Cc1ccc(C(=O)COC(=O)CCC(=O)Nc2cccc(Cl)c2)cc1[N+](=O)[O-]	inconclusive: 13 µM [rising, partial curve]	
Cn1c(CNC(=O)OC(C)(C)C)n[nH]c1=S	inactive	
COc1ccc(C(=O)OCC(=O)N2CC(=O)Nc3ccccc32)cc1Br	inconclusive: 23.1 µM [cytotoxic, partial curve, poor fit]	
CCn1c(=O)c2cc(C(=O)Nc3cc(F)ccc3F)sc2c2ccccc21	inactive	
CCN(CC)c1c2c(c(C#N)c3nc4ccccc4n13)CCC2	active: 3.66 µM	
Cn1cc(CN2CCCC(C(=O)c3cc(F)ccc3F)C2)c2ccccc21 (configuration not stated)	inactive	
COc1ccc(NC(=O)CSc2nc(C)cs2)c([N+](=O)[O-])c1	active: 23.1 µM	
CC(c1ccc(F)cc1)n1c(Cn2ncc3ccccc3c2=O)n[nH]c1=S (configuration not stated)	inconclusive: 18.4 µM [cytotoxic, single point]	
CCN(CC)C(=O)C(C)N(C#N)c1nc(NC(C)C)nc(NC(C)C)n1 (configuration not stated)	active: 9.2 µM	
CC(=O)c1c(C)oc2ccc(O)c(CN3CCOCC3)c12	inconclusive: 25.9 µM [cytotoxic, single point]	
Cc1cc2oc(=O)cc(CN(C)Cc3ccccc3Cl)c2cc1C	inactive	
O=C(NCCCc1ccccc1)C1CCN(c2nnc(-n3cccc3)s2)CC1	inconclusive: 29.1 µM [cytotoxic, single point]	
O=C(c1cc2ccccc2o1)N1CCN(S(=O)(=O)c2cccs2)CC1	inactive	
CCOc1ccc(NC(=O)CN2C(=O)NC3(CCCCCC3)C2=O)cc1	inconclusive: 32.6 µM [cytotoxic, single point]	
